PubChem BioAssay AID1508597 | Cure First | 2020
Screen: 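Genes whose silencing sensitises or protects ovarian cancer cells against rucaparib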 (primary screen). System: human ovarian carcinoma lines grown from tumours: OCI-P5x (papillary serous) and OCI-C5x (clear cell). Reagent: siRNA pool against human genes, 1.25 pmol siRNA per well. Time to read-out: 72 h or 96 h, depending on the cell culture. Treatment: rucaparib 20 µM (about IC30) or vehicle, present until read-out. Rucaparib or vehicle: Vehicle. Cell line: OCI-C5x (clear cell). Read-out: 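Luminescent ATP-based viability assay read 72 or 96 h after transfection, depending on culture, given as normalised percent viability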. Direction: viability, normalised: higher = more viable cells remaining. Call rule: 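a well counts as a hit if its normalised viability is under 80 percent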. Calls: active = viability under 80%; inactive = viability 80% or more.
Shown is an unselected part of the about 2,100 reagents, in one setting of the screen. 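Calls flag viability under 80% in either arm, not effects specific to rucaparib; the reference for percent is not stated.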 Not given: the 100% reference.

no.	Target gene	technical replicate	viability, normalised (%)	Call
1	LEF1 (lymphoid enhancer binding factor 1)	1	47.7	active
2	LEF1 (lymphoid enhancer binding factor 1)	2	45.8	active
3	LEF1 (lymphoid enhancer binding factor 1)	3	63.1	active
4	MELK (maternal embryonic leucine zipper kinase)	1	65.1	active
5	MELK (maternal embryonic leucine zipper kinase)	2	35.3	active
6	MELK (maternal embryonic leucine zipper kinase)	3	51.6	active
7	MEMO1 (mediator of cell motility 1)	1	44.7	active
8	MEMO1 (mediator of cell motility 1)	2	37.1	active
9	MEMO1 (mediator of cell motility 1)	3	60.3	active
10	YTHDC2 (YTH N6-methyladenosine RNA binding protein C2)	1	46.4	active
11	YTHDC2 (YTH N6-methyladenosine RNA binding protein C2)	2	52.9	active
12	YTHDC2 (YTH N6-methyladenosine RNA binding protein C2)	3	45.2	active
13	MAP2K4 (mitogen-activated protein kinase kinase 4)	1	72.2	active
14	MAP2K4 (mitogen-activated protein kinase kinase 4)	2	41.6	active
15	MAP2K4 (mitogen-activated protein kinase kinase 4)	3	60.1	active
16	PRKCG (protein kinase C gamma)	1	64.5	active
17	PRKCG (protein kinase C gamma)	2	88	inactive
18	PRKCG (protein kinase C gamma)	3	62.6	active
19	RALY (RALY heterogeneous nuclear ribonucleoprotein)	1	35.9	active
20	RALY (RALY heterogeneous nuclear ribonucleoprotein)	2	46.4	active
21	RALY (RALY heterogeneous nuclear ribonucleoprotein)	3	56.7	active
22	MCL1 (MCL1 apoptosis regulator, BCL2 family member)	1	44.7	active
23	MCL1 (MCL1 apoptosis regulator, BCL2 family member)	2	44.3	active
24	MCL1 (MCL1 apoptosis regulator, BCL2 family member)	3	37.6	active
25	MAPKAPK5 (MAPK activated protein kinase 5)	1	52.5	active
26	MAPKAPK5 (MAPK activated protein kinase 5)	2	76.2	active
27	MAPKAPK5 (MAPK activated protein kinase 5)	3	66.5	active
28	POT1 (protection of telomeres 1)	1	91.6	inactive
29	POT1 (protection of telomeres 1)	2	51.3	active
30	POT1 (protection of telomeres 1)	3	63.8	active
31	H2BC12 (H2B clustered histone 12)	1	68.6	active
32	H2BC12 (H2B clustered histone 12)	2	55.3	active
33	H2BC12 (H2B clustered histone 12)	3	55.4	active
34	SETD6 (SET domain containing 6, protein lysine methyltransferase)	1	24.2	active
35	SETD6 (SET domain containing 6, protein lysine methyltransferase)	2	29.3	active
36	SETD6 (SET domain containing 6, protein lysine methyltransferase)	3	30	active
37	RHO (rhodopsin)	1	26.2	active
38	RHO (rhodopsin)	2	18.2	active
39	RHO (rhodopsin)	3	23.3	active

4 of these entries, set out differently.
{"Target gene": "MAPKAPK5 (MAPK activated protein kinase 5)", "technical replicate": "2", "viability, normalised (%)": 76.2, "Call": "active"}
{"Target gene": "MAPKAPK5 (MAPK activated protein kinase 5)", "technical replicate": "3", "viability, normalised (%)": 66.5, "Call": "active"}
{"Target gene": "POT1 (protection of telomeres 1)", "technical replicate": "1", "viability, normalised (%)": 91.6, "Call": "inactive"}
{"Target gene": "POT1 (protection of telomeres 1)", "technical replicate": "2", "viability, normalised (%)": 51.3, "Call": "active"}
